Results are given in words; binding and its absence hold for the method and conditions named. Binding seen in cells or lysates may run through a third protein. For part of these data: Binding can be weak; no strength is given.

The chains behind the UniProt entries cited, without tags or fusion partners. Where a name states a change or a piece, a line headed by the entry shows the natural chain unless it says otherwise.
UniProt P02545: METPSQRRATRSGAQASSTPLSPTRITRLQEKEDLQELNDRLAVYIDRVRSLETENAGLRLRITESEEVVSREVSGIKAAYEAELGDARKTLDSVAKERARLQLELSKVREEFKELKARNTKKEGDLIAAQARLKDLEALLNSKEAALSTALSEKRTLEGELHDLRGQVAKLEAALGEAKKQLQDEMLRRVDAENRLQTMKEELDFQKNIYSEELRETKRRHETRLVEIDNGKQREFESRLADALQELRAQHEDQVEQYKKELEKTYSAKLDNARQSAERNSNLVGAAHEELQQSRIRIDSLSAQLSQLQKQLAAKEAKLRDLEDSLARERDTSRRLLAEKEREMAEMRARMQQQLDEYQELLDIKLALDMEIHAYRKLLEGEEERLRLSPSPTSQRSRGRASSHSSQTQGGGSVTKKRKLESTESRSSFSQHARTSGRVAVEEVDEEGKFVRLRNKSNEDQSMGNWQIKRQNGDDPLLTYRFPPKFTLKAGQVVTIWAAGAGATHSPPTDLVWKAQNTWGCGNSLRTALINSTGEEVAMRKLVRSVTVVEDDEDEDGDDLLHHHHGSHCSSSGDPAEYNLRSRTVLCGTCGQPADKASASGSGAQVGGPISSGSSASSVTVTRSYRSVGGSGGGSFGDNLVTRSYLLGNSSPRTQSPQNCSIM
UniProt P22216: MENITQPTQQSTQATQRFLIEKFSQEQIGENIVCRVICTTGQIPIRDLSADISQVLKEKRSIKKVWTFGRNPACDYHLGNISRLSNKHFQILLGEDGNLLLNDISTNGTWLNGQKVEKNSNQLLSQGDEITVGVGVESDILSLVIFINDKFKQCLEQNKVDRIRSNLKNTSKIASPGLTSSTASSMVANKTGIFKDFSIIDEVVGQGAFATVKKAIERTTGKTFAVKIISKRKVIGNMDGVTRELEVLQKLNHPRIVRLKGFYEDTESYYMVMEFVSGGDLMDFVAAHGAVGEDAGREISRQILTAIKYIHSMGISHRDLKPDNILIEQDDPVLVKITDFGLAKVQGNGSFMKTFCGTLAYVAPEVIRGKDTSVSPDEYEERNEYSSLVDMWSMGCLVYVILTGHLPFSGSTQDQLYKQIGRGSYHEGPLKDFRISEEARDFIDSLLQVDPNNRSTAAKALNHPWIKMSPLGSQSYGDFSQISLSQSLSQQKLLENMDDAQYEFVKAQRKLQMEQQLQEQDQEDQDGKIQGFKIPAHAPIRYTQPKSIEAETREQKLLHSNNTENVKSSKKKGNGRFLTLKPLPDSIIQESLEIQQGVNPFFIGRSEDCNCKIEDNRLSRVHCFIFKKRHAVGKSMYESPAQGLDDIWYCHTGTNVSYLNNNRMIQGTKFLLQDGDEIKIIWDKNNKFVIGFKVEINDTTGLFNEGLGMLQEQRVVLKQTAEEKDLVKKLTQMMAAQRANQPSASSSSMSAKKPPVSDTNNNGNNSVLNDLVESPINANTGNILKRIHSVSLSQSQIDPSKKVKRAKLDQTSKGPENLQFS

Results on one substance are retold here after publication PMC11494032.

The target of assay [1] is full-length lamin A of LAPS, phosphorylated at serine 22 (UniProt P02545). Briefly: FRET or BRET; live HeLa cells expressing pLamin A biosensor 2.0 (as LAPS but with the EV linker of 120 amino acids); FRET ratio as cells exit mitosis.
Assay [2] concerns the target full-length lamin A of LAPS with S22A (UniProt P02545). The experiment in a line: FRET or BRET; live HeLa cells expressing LAPS (FHA2, YPet, 34-amino-acid linker, ECFP and full-length lamin A on one chain); ratio of the FRET and ECFP channels by confocal microscopy, 445-nm excitation; mitosis against interphase; also hypotonic medium, cell adhesion, release from RO-3306 or double thymidine.

Assay [3] has as its target full-length lamin A of LAPS with S392A, phosphorylated at serine 22 (UniProt P02545). The description is as above.

For “FHA2 domain of the lamin A phosphorylation sensor (LAPS), wild type (from UniProt P22216) (domain or fragment)”, the binding result was “binds” in assay [1], “no binding” in assay [2] and “binds” in assay [3].
